Values of other authors as cited in patent US6579857B1, “Combination cancer therapy comprising adenosine and deaminase enzyme inhibitors” (Evanston Northwestern Healthcare Research Institute, priority 1999, dated 2003).
Some of these results come from one statement about several compounds together.

Biological target: adenosine kinase
Conditions: cited from earlier work

For `OC[C@H]1O[C@@H](n2cnc3c(NCCCCCCCCCCCCNc4ncnc5c4ncn5[C@@H]4O[C@H](CO)[C@@H](O)[C@H]4O)ncnc32)[C@H](O)[C@@H]1O` [1,12-bis(adenosin-N^6-yl)dodecane], the Ki is listed as under 100 nM.
